Measurements published in PubChem BioAssay AID330 (DTP/NCI, 2004).
The list shows only some results of the screen, not a fair sample: it is rich in T/C values a quarter to a half above the control, in often repeated tests (any T/C) and in doses without a T/C. Further doses and runs are listed elsewhere. T/C gives the treated animals as a percentage of the vehicle group. Some entries give survivors of the animals treated and no T/C: the source holds a T/C of zero for them, seemingly a mark for toxic or unscored doses. Some survivor counts are full or nearly so, which does not show that the dose was tolerated: survival well below the control is almost never listed, so the zero probably covers shortened survival too. Counts of survivors are from the toxicity check (mostly the fifth day) where no day follows; animals may have died later. Schedules are NCI's codes, read here as Q, the interval in days (D) or hours (H), X, the number of doses. For survival time, the PubChem record calls one and a half times the control and up active, and a quarter to a half above the control has no call in these data; cut-offs in other NCI protocols can differ. Some entries hold several experiments; the results are listed from low to high. Some T/C values are followed by the survivors on the day toxicity was checked, most often the fifth; where none is given, no animal had died by that day. Marks such as (2×) give the number of equal values in this list.

Test system: P388 leukemia ip, CD2F1 mice, survival T/C
Assay: NCI In Vivo Anticancer Drug Screen. Data for tumor model P388 Leukemia (intraperitoneal) in CD2F1 (CDF1) mice
Settings: T/C endpoint: median survival time, higher T/C = longer survival
[1] = dose: 50.0 mg/kg/injection, schedule: Q01DX009 (ip), vehicle: saline with Tween-80
[2] = dose: 200.0 mg/kg/injection, schedule: Q01DX009 (ip), vehicle: saline with Tween-80
[3] = dose: 200.0 mg/kg/injection, schedule: Q01DX005 (ip), vehicle: saline with Tween-80
[4] = dose: 400.0 mg/kg/injection, schedule: Q04DX003 (ip), vehicle: Klucel (hydroxypropylcellulose) (HPC)
[5] = dose: 200.0 mg/kg/injection, schedule: Q01DX005 (ip), vehicle: saline
[6] = dose: 100.0 mg/kg/injection, schedule: Q01DX009 (ip), vehicle: water
[7] = dose: 100.0 mg/kg/injection, schedule: Q01DX009 (ip), vehicle: Klucel (hydroxypropylcellulose) (HPC)
[8] = dose: 200.0 mg/kg/injection, schedule: Q01DX009 (ip), vehicle: Klucel (hydroxypropylcellulose) (HPC)
[9] = dose: 120.0 mg/kg/injection, schedule: Q01DX005 (ip), vehicle: saline
[10] = dose: 240.0 mg/kg/injection, schedule: Q01DX005 (ip), vehicle: saline
[11] = dose: 100.0 mg/kg/injection, schedule: Q04DX003 (ip), vehicle: saline with Tween-80
[12] = dose: 200.0 mg/kg/injection, schedule: Q04DX003 (ip), vehicle: saline with Tween-80
[13] = dose: 400.0 mg/kg/injection, schedule: Q04DX003 (ip), vehicle: saline with Tween-80

Brc1ccc2c(c1)-c1ccccc1C1=NCCN12
survivor count (dose: 40.0 mg/kg/injection, schedule: Q04DX003 (ip), vehicle: saline): 1 of 6 | survivor count (dose: 80.0 mg/kg/injection, schedule: Q04DX003 (ip), vehicle: saline): 0 of 6

Nc1nc(N)c2cc(Sc3ccc(Cl)cc3)ccc2n1
T/C [1]: 137 and 141 % of control | survivor count [2]: 6 of 6

C/C(=N\Nc1cc(C)nc2cc3c(cc12)OCO3)c1cn(C)n(-c2ccccc2)c1=O
survivor count (dose: 200.0 mg/kg/injection, schedule: Q01DX005 (ip), vehicle: Klucel (hydroxypropylcellulose) (HPC)): 2 of 6

C[N+]1(Cc2ccc(C(N)=O)cc2)CCC(CCC2CC[N+](C)(Cc3ccc(C(N)=O)cc3)CC2)CC1 (centres undefined)
survivor count (dose: 6.25 mg/kg/injection, schedule: Q01DX005 (ip), vehicle: saline with Tween-80): 0 of 5 | survivor count (dose: 12.5 mg/kg/injection, schedule: Q01DX005 (ip), vehicle: saline with Tween-80): 0 of 5 | survivor count (dose: 25.0 mg/kg/injection, schedule: Q01DX005 (ip), vehicle: saline with Tween-80): 0 of 5 | survivor count (dose: 50.0 mg/kg/injection, schedule: Q01DX005 (ip), vehicle: saline with Tween-80): 0 of 5 | survivor count (dose: 100.0 mg/kg/injection, schedule: Q01DX005 (ip), vehicle: saline with Tween-80): 0 of 5 | survivor count [3]: 0 of 5

CCCCCCCC(=O)NC1CC(O[C@H]2C[C@](O)(C(=O)CO)Cc3c(O)c4c(c(O)c32)C(=O)c2c(OC)cccc2C4=O)OC(C)C1O (some centres undefined)
survivor count (dose: 200.0 mg/kg/injection, schedule: Q01DX009 (ip), vehicle: other): 6 of 6

COC(=O)CCCOc1ccc(N(CCCl)CCCl)cc1
survivor count [4]: 0 of 6

OC1Cc2ccccc2CC1NC1CCCCC1 (centres undefined)
survivor count [5]: 0 of 6

NCCCO[C@H]1CO[C@H]2[C@@H]1OC[C@H]2OCCCN
survivor count [5]: 0 of 6

CCCCCCCCCCCCCCCC(=O)N(CCCCCCCCCN(CCCN(C)C)C(=O)CCCCCCCCCCCCCCC)CCCN(C)C
survivor count (dose: 50.0 mg/kg/injection, schedule: Q01DX009 (ip), vehicle: water): 5 of 6 | survivor count [6]: 3 of 6 | survivor count (dose: 200.0 mg/kg/injection, schedule: Q01DX009 (ip), vehicle: water): 0 of 6 | survivor count (dose: 400.0 mg/kg/injection, schedule: Q01DX009 (ip), vehicle: water): 0 of 6

C=C(C)[C@@H]1CC[C@@H]2C(=CC[C@]3(C)C([C@H](C)CC/C=C(/C)C(=O)O)CC[C@@]23C)[C@@]1(C)CCC(=O)O (some centres undefined)
survivor count (dose: 22.5 mg/kg/injection, schedule: Q01DX009 (ip), vehicle: saline + alcohol): 6 of 6 | survivor count (dose: 45.0 mg/kg/injection, schedule: Q01DX009 (ip), vehicle: saline + alcohol): 6 of 6

CCCCOc1cc(C(=O)NCCN(C)C)c2ccccc2n1
survivor count (dose: 60.0 mg/kg/injection, schedule: Q01DX005 (ip), vehicle: saline with Tween-80): 0 of 6 | survivor count (dose: 120.0 mg/kg/injection, schedule: Q01DX005 (ip), vehicle: saline with Tween-80): 0 of 6 | survivor count (dose: 240.0 mg/kg/injection, schedule: Q01DX005 (ip), vehicle: saline with Tween-80): 0 of 6

[O-][n+]1nc(Cl)nc2ccccc21
survivor count (dose: 40.0 mg/kg/injection, schedule: Q01DX009 (ip), vehicle: Klucel (hydroxypropylcellulose) (HPC)): 4 of 6 | survivor count [7]: 0 of 6 | survivor count [8]: 1 of 6 | survivor count (dose: 400.0 mg/kg/injection, schedule: Q01DX009 (ip), vehicle: Klucel (hydroxypropylcellulose) (HPC)): 0 of 6

O=C1C(=O)C(Cl)=C(Cl)C(Cl)=C1Cl
survivor count (dose: 12.5 mg/kg/injection, schedule: Q01DX009 (ip), vehicle: saline with Tween-80): 5 of 6 | survivor count [1]: 6 of 6

C[N+]1(C)CCCC(C(=O)c2ccccc2)C1 (centres undefined)
survivor count (dose: 60.0 mg/kg/injection, schedule: Q01DX005 (ip), vehicle: saline): 0 of 6 | survivor count [9]: 0 of 6 | survivor count [10]: 0 of 6

CN1CNC(=O)c2n[nH]nc21
survivor count (dose: 100.0 mg/kg/injection, schedule: Q04DX002 (ip), vehicle: Klucel (hydroxypropylcellulose) (HPC)): 0 of 6 | survivor count (dose: 200.0 mg/kg/injection, schedule: Q04DX002 (ip), vehicle: Klucel (hydroxypropylcellulose) (HPC)): 0 of 6

COc1ccc(C[Se][Se]Cc2ccc(OC)cc2)cc1
survivor count (dose: 50.0 mg/kg/injection, schedule: Q01DX009 (ip), vehicle: Klucel (hydroxypropylcellulose) (HPC)): 6 of 6 | survivor count [7]: 3 of 6 | survivor count [8]: 0 of 6

COc1ccc(-[n+]2noc(N)n2)cc1
survivor count [6]: 3 of 6

NC(N)=NS(=O)(=O)c1ccc(N=c2c3ccccc3n(-c3ccccc3)c3ccccc23)cc1
survivor count [3]: 5 of 6

COc1ccc(C2NC(C(=O)O)CS2)cc1OC (centres undefined)
survivor count (dose: 100.0 mg/kg/injection, schedule: Q01DX009 (ip), vehicle: suspension in saline): 6 of 6

CC(C)OC(CCC#N)c1ccc(Cl)cc1 (centres undefined)
survivor count [11]: 6 of 6 | survivor count [12]: 1 of 6 | survivor count [13]: 0 of 6

Cc1cccc(OCC(O)CNC(C)(C)C)c1C (centres undefined)
survivor count [2]: 0 of 6

CCC/C(=N\O)S(=O)(=O)c1ccc(NN=O)nc1
T/C (dose: 25.0 mg/kg/injection, schedule: Q01DX009 (ip), vehicle: saline): 145 % of control

[N-]=[N+]=N/C=C/C(=O)OCCBr
survivor count [9]: 3 of 6 | survivor count [10]: 0 of 6

CCC1CCCN(CCc2c(C3(CO)CCC(CO)c4c(CCN5CCCC(CC)C5)c5ccccc5n43)[nH]c3ccccc23)C1 (centres undefined)
survivor count (dose: 5.59 mg/kg/injection, schedule: Q01DX009 (ip), vehicle: saline with Tween-80): 4 of 4

COc1cccc(-c2nnc(-c3nc[nH]c3C)o2)c1
survivor count (dose: 400.0 mg/kg/injection, schedule: Q04DX002 (ip), vehicle: Klucel (hydroxypropylcellulose) (HPC)): 2 of 6

CN1CCCC2c3ccccc3CCC21 (centres undefined)
survivor count (dose: 50.0 mg/kg/injection, schedule: Q04DX003 (ip), vehicle: Klucel (hydroxypropylcellulose) (HPC)): 5 of 6 | survivor count (dose: 100.0 mg/kg/injection, schedule: Q04DX003 (ip), vehicle: Klucel (hydroxypropylcellulose) (HPC)): 0 of 6 | survivor count (dose: 200.0 mg/kg/injection, schedule: Q04DX003 (ip), vehicle: Klucel (hydroxypropylcellulose) (HPC)): 0 of 6 | survivor count [4]: 0 of 6

CN(C)C(C)(C#N)C(N)=O (centres undefined)
survivor count (dose: 12.5 mg/kg/injection, schedule: Q04DX003 (ip), vehicle: saline): 0 of 6 | survivor count (dose: 25.0 mg/kg/injection, schedule: Q04DX003 (ip), vehicle: saline): 0 of 6 | survivor count [11]: 0 of 6 | survivor count [12]: 0 of 6 | survivor count [13]: 0 of 6

S=C=[N][Sn]([N]=C=S)([c]1ccccc1)[c]1ccccc1.c1ccc2nc(-c3ccc4ccccc4n3)ccc2c1
T/C (dose: 7.5 mg/kg/injection, schedule: Q01DX005 (ip), vehicle: Klucel (hydroxypropylcellulose) (HPC)): 125 % of control [5 of 6 alive] (2×) | T/C (dose: 15.0 mg/kg/injection, schedule: Q01DX005 (ip), vehicle: Klucel (hydroxypropylcellulose) (HPC)): 129 [5 of 6 alive] and 135 % of control [5 of 6 alive] | survivor count (dose: 60.0 mg/kg/injection, schedule: Q01DX005 (ip), vehicle: Klucel (hydroxypropylcellulose) (HPC)): 0 of 6 | survivor count (dose: 120.0 mg/kg/injection, schedule: Q01DX005 (ip), vehicle: Klucel (hydroxypropylcellulose) (HPC)): 0 of 6 | survivor count (dose: 240.0 mg/kg/injection, schedule: Q01DX005 (ip), vehicle: Klucel (hydroxypropylcellulose) (HPC)): 0 of 6
